The list shows a part of the results.
Tests used:
Experiment in all cases: log2 fold change, soluble protein after heating vs DMSO (PISA); higher = thermal stabilisation; K562 cells, 10 uM, 30 min; active = over 0.2 and 3.5 SD of the protein, either way, in both replicates (recomputed)
[1] = compound: NC(=O)Nc1cc(-c2cccc(F)c2)sc1C(=O)N[C@H]1CCCNC1
Procedure, shortened: (§1)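 Soluble protein was defined as the supernatant after 21,000xg for 90 min. It came from K562 cells at 2×10^6 cells/mL given 10 μM compound for 30 min, heated in aliquots for 3 min across 48°C-58°C, pooled, and extracted in PBS with 0.5% NP-40 at 4°C, and was quantified by TMTpro 16plex LC-MS/MS with equalised channel sums. Thermal stability against control samples, from duplicates, is reported as log2 fold change.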

Protein sequences, listed by entry. Tags and fused reporters are not part of them. Lines headed by an entry give the natural chain unless they say otherwise; changes in a name come on top.
UniProt Q9NRW1: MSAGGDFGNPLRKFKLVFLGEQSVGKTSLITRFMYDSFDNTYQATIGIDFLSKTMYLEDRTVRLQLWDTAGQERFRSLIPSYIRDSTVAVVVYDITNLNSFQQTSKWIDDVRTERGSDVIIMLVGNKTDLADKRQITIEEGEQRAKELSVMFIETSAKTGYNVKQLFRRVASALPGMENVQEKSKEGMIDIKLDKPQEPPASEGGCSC
UniProt Q9H6Z4: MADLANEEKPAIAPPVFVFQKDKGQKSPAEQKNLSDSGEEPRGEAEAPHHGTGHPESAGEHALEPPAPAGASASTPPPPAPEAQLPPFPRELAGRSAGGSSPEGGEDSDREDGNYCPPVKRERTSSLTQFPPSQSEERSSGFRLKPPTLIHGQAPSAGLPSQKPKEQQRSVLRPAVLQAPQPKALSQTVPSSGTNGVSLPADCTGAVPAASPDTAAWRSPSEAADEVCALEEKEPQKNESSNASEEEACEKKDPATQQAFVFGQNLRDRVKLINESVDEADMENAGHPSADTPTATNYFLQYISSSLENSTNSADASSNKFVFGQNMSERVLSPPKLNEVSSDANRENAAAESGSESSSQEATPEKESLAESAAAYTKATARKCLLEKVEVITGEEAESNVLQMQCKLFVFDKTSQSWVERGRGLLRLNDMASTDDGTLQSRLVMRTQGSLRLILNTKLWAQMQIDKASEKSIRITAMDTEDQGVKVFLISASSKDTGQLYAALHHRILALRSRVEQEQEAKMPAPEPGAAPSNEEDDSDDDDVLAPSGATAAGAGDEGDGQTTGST
UniProt Q15286: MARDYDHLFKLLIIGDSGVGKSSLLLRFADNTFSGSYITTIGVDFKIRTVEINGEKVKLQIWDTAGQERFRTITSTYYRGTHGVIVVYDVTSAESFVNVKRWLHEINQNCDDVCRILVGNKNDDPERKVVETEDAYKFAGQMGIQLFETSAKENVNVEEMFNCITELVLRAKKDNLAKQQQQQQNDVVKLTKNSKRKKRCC
UniProt Q99638: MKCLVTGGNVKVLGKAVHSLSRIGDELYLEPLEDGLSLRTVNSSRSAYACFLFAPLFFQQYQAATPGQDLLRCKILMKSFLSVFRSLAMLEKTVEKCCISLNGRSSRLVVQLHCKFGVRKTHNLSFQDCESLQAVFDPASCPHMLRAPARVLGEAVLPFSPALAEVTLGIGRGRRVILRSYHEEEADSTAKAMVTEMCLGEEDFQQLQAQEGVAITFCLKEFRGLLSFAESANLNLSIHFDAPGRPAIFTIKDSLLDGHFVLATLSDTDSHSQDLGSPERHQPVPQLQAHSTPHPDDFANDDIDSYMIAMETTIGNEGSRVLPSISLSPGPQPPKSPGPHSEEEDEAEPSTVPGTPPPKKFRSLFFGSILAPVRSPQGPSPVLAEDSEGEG
UniProt P20936: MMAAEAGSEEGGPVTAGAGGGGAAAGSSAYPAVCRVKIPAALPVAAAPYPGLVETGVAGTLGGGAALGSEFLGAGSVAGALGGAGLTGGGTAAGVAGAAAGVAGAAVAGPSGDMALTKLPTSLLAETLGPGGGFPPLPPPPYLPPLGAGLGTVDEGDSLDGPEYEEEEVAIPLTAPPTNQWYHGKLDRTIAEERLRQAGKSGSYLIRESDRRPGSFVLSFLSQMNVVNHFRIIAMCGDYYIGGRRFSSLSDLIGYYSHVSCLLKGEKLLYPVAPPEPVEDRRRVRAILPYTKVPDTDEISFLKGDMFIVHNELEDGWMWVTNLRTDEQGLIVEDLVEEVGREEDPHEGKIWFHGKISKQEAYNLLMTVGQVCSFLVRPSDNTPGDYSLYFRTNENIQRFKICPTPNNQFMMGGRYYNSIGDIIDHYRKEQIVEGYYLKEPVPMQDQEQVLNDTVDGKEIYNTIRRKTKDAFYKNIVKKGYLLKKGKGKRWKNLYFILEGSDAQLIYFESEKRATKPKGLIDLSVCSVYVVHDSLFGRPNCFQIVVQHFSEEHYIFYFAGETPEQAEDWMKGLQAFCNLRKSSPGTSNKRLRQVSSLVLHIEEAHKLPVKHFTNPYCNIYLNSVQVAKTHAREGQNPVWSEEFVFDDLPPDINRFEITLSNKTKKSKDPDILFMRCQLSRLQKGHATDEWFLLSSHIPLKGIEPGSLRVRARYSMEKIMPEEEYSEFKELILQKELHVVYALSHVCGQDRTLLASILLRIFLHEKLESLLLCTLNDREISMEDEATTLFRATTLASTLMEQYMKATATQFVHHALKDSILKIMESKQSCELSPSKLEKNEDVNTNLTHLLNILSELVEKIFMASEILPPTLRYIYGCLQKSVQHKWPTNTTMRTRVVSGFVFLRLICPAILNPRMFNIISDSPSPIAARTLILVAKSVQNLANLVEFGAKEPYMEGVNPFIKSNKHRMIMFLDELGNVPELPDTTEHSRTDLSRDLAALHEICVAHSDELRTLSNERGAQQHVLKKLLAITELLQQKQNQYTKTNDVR
UniProt Q09028, whole entry, looked up: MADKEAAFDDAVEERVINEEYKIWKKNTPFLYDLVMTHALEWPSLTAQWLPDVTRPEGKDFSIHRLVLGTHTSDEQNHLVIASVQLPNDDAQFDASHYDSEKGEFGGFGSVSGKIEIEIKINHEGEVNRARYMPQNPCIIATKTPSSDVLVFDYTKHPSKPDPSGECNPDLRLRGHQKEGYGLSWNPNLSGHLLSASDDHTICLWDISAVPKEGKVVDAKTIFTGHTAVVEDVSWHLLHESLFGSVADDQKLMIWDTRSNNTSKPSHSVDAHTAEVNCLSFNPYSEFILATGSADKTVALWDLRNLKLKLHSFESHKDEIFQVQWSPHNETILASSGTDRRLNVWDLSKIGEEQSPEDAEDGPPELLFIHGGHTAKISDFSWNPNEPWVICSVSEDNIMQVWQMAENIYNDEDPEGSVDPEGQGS
UniProt Q15311: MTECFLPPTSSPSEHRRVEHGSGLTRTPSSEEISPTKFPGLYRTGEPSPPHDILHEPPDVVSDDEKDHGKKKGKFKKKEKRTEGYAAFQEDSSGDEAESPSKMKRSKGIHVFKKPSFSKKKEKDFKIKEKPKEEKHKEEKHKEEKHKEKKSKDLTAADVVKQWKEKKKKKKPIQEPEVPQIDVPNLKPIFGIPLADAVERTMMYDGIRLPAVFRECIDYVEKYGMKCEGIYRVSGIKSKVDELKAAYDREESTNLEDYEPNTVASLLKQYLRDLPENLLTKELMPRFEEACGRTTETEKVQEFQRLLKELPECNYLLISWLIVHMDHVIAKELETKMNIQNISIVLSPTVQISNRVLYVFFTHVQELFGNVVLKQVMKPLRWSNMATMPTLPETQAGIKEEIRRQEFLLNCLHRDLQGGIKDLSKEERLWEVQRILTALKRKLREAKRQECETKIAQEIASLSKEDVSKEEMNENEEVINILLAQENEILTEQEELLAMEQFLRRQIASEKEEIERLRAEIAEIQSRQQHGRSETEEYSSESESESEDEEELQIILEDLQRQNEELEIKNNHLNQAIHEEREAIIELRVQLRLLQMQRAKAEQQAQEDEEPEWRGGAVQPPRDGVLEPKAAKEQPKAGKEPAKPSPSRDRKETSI
UniProt Q86WH2: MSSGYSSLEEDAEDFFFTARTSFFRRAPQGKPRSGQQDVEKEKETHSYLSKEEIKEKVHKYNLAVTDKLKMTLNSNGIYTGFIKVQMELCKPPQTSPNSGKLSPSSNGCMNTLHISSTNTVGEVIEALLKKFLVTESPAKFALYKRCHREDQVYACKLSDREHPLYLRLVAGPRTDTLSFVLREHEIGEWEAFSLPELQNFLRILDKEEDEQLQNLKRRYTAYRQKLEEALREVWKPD
UniProt Q13905: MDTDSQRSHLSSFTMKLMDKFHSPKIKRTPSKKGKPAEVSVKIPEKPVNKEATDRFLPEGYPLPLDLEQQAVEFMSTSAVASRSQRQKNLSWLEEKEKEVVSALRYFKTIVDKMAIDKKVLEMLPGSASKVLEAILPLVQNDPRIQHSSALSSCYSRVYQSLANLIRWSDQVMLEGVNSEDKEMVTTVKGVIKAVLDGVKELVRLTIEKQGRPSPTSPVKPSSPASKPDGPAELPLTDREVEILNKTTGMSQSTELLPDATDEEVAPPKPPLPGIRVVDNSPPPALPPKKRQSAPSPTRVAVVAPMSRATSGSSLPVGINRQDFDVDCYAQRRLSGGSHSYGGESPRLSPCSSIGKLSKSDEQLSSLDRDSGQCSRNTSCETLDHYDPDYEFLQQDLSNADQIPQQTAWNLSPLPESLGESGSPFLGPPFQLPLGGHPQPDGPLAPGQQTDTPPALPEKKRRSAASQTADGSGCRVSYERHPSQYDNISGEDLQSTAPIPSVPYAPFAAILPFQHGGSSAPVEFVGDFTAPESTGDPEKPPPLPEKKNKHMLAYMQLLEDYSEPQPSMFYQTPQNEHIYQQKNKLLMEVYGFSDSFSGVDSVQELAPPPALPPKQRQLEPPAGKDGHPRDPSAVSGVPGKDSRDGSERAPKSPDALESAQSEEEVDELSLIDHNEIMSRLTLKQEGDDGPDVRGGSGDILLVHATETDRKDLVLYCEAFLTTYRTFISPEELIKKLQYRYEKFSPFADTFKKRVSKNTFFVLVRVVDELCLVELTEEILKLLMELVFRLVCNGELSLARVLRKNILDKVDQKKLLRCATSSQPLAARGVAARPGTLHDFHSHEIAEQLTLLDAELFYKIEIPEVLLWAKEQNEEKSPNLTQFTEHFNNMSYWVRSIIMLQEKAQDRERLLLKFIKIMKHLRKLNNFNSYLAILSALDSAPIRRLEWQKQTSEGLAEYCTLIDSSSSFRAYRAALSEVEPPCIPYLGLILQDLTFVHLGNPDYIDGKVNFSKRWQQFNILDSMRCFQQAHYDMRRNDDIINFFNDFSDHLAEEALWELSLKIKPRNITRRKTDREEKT
UniProt O75884: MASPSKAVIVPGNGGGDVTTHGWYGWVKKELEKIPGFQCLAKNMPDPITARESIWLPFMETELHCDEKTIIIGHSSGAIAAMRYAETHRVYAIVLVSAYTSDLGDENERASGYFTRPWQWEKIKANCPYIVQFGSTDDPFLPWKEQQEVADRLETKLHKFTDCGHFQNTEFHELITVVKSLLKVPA
UniProt Q96PK6: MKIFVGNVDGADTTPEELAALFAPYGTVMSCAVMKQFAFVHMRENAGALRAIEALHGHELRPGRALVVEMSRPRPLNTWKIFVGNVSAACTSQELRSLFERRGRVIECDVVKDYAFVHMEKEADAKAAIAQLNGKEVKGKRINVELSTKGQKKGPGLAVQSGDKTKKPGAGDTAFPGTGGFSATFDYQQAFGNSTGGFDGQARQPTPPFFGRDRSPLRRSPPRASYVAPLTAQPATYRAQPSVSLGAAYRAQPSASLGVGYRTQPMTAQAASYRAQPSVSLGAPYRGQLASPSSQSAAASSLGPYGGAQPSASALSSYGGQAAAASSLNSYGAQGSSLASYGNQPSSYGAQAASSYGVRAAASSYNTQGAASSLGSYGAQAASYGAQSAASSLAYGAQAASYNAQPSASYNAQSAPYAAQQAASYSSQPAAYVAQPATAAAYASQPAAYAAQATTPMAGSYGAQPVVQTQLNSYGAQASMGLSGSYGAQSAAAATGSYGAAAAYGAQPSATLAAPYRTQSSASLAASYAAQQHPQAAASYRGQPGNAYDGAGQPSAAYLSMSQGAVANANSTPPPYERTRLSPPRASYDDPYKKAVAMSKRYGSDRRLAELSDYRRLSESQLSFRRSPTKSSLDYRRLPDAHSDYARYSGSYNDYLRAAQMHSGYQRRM
UniProt Q14644: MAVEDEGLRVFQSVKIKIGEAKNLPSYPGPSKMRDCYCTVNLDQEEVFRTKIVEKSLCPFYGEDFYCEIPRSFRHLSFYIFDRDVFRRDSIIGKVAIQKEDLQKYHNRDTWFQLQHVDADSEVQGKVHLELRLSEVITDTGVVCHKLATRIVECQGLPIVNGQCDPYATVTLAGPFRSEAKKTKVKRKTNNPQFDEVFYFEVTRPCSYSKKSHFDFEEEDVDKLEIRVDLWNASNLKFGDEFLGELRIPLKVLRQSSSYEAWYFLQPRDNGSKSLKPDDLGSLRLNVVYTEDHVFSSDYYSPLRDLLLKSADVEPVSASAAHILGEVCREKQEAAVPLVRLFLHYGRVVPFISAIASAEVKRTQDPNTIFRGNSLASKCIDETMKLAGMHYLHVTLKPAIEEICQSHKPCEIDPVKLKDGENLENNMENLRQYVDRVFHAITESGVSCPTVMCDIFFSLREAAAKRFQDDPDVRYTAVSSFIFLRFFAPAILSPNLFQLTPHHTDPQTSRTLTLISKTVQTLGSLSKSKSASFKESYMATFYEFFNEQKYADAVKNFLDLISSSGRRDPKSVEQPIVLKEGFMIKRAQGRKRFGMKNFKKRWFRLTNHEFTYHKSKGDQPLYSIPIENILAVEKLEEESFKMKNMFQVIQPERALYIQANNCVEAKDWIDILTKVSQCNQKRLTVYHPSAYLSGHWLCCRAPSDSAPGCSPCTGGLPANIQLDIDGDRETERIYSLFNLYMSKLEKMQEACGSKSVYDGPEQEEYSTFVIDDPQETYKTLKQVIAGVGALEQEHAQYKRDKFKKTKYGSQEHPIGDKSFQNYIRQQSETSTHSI

[2] = compound: NC(=O)c1cnc(N[C@@H]2CCCC[C@@H]2N)nc1Nc1cccc(-n2nccn2)c1
Procedure, shortened: as §1

[3] = compound: NC1(c2ccc(-c3nc4ccn5c(=O)[nH]nc5c4cc3-c3ccccc3)cc2)CCC1
Procedure, shortened: as §1

[4] = compound: NCC(=O)Nc1ccc(-n2nc(C(F)(F)F)cc2-c2ccc3c(ccc4ccccc43)c2)cc1
Procedure, shortened: as §1

[5] = compound: Nc1ccccc1NC(=O)c1ccc(CNC(=O)OCc2cccnc2)cc1 [entinostat]
Procedure, shortened: as §1

[6] = compound: O=C(CCCCCCC(=O)Nc1ccccc1)NO [vorinostat]
Procedure, shortened: as §1

[7] = compound: O=C(CCCCCCNC(=O)c1cnc(N(c2ccccc2)c2ccccc2Cl)nc1)NO [citarinostat]
Procedure, shortened: as §1

[8] = compound: O=C(O)c1ccc2c(c1)nc(Nc1cccc(Cl)c1)c1ccncc12 [silmitasertib]
Procedure, shortened: as §1

[9] = compound: O=C1NC(=O)C(c2cnc3ccccn23)=C1c1cn2c3c(cc(F)cc13)CN(C(=O)N1CCCCC1)CC2
Procedure, shortened: as §1

[10] = compound: c1cc(OCCN2CCCCC2)cc(-c2n[nH]c3ccc(-c4nnc[nH]4)cc23)c1
Procedure, shortened: as §1

| Target | log2 fold change [1] | log2 fold change [2] | log2 fold change [3] | log2 fold change [4] | log2 fold change [5] | log2 fold change [6] | log2 fold change [7] | log2 fold change [8] | log2 fold change [9] | log2 fold change [10] |
| --- | --- | --- | --- | --- | --- | --- | --- | --- | --- | --- |
| RAB6B (UniProt Q9NRW1) | inactive: 0.036 | inactive: 0.06 | inactive: 0.059 | inactive: -0.026 | inactive: -0.009 | inactive: -0.021 | inactive: 0.012 | inactive: 0.019 | inactive: 0.02 | inactive: 0.025 |
| RANBP3 (UniProt Q9H6Z4) | inactive: 0.024 | inactive: 0.029 | inactive: -0.02 | inactive: -0.013 | inactive: -0.007 | inactive: 0.03 | inactive: 0.041 | inactive: -0.016 | inactive: -0.009 | inactive: 0.012 |
| RAC3 (UniProt P60763) | inactive: -0.142 | inactive: 0.067 | inactive: 0.058 | inactive: -0.002 | inactive: -0.14 | inactive: -0.037 | inactive: -0.007 | inactive: 0.016 | inactive: -0.083 | inactive: 0.176 |
| RAD50, A0A494C0Y7 | inactive: -0.032 | inactive: -0.159 | inactive: -0.28 | inactive: -0.175 | inactive: -0.103 | inactive: -0.086 | inactive: 0.095 | inactive: 0.103 | – | inactive: -0.279 |
| RAPGEF5, A0A590UJR0 | inactive: 0.081 | inactive: -0.196 | inactive: -0.028 | inactive: -0.449 | inactive: 0.031 | inactive: 0.117 | inactive: 0.011 | inactive: -0.082 | – | inactive: 0.053 |
| RAB35 (UniProt Q15286) | inactive: -0.069 | inactive: -0.012 | inactive: -0.01 | inactive: 0.012 | inactive: -0.011 | inactive: -0.021 | inactive: 0.004 | inactive: 0.02 | inactive: -0.038 | inactive: -0.01 |
| RAB29 (UniProt O14966) | inactive: -0.042 | inactive: -0.007 | inactive: -0.122 | inactive: -0.035 | inactive: 0.011 | inactive: 0.047 | inactive: -0.072 | inactive: -0.007 | inactive: -0.035 | inactive: -0.255 |
| RAD9A (UniProt Q99638) | inactive: -0.047 | inactive: 0.003 | inactive: -0.044 | inactive: 0.048 | inactive: -0.007 | inactive: 0.144 | inactive: 0.019 | inactive: -0.021 | inactive: -0.092 | inactive: -0.007 |
| RASA1 (UniProt P20936) | inactive: -0.111 | inactive: 0.26 | inactive: -0.044 | inactive: -0.126 | inactive: -0.026 | – | inactive: -0.033 | inactive: -0.008 | inactive: 0.173 | inactive: -0.114 |
| RAD51B (UniProt O15315) | inactive: -0.009 | inactive: -0.163 | inactive: -0.241 | – | inactive: -0.078 | inactive: 0.002 | inactive: -0.084 | inactive: -0.01 | inactive: 0.033 | inactive: 0.042 |
| R3HDM4 (UniProt Q96D70) | inactive: 0.048 | inactive: -0.013 | inactive: -0.111 | inactive: 0.264 | inactive: 0.143 | – | inactive: 0.053 | inactive: -0.203 | inactive: 0.1 | inactive: 0.023 |
| RANGRF (UniProt Q9HD47) | – | – | – | – | – | – | inactive: -0.052 | – | – | inactive: 0.005 |
| RBBP8 isoform 2 (UniProt Q99708) | – | inactive: 0.149 | – | – | – | – | – | – | – | – |
| RAB3B (UniProt P20337) | inactive: 0.031 | – | – | – | inactive: -0.098 | inactive: 0.125 | – | – | – | – |
| RAP1B (UniProt F5GWU8) | – | inactive: 0.16 | – | inactive: -0.079 | – | – | – | – | – | – |
| RBBP4 isoform 2 (UniProt Q09028) | – | inactive: 0.015 | inactive: 0.067 | – | – | inactive: -0.135 | inactive: 0.101 | inactive: 0.028 | – | inactive: 0.033 |
| RBCK1 (UniProt Q9BYM8) | – | inactive: 0.058 | – | inactive: 0.072 | – | – | – | – | inactive: 0.025 | – |
| RBL1 (UniProt P28749) | – | – | – | – | – | inactive: -0.09 | inactive: 0.263 | – | – | inactive: 0.313 |
| RALBP1 (UniProt Q15311) | inactive: -0.155 | inactive: -0.03 | – | inactive: -0.035 | inactive: 0.04 | inactive: -0.029 | – | – | inactive: 0.266 | – |
| RASSF3 (UniProt Q86WH2) | – | inactive: 0.01 | inactive: 0.291 | inactive: -0.172 | – | inactive: -0.141 | inactive: 0.1 | inactive: 0.127 | – | inactive: -0.035 |
| RAD51D (UniProt O75771) | – | inactive: 0.04 | inactive: -0.075 | inactive: -0.293 | – | inactive: 0.101 | inactive: 0.044 | inactive: 0.032 | – | inactive: 0.017 |
| RALGAPB (UniProt Q86X10) | inactive: 0.023 | inactive: -0.077 | inactive: -0.13 | – | inactive: -0.235 | – | inactive: 0.071 | inactive: 0.078 | inactive: -0.015 | inactive: -0.266 |

Single records (already shown). Order of values: log2 fold change [1]	log2 fold change [2]	log2 fold change [3]	log2 fold change [4]	log2 fold change [5]	log2 fold change [6]	log2 fold change [7]	log2 fold change [8]	log2 fold change [9]	log2 fold change [10]
RANGRF (UniProt Q9HD47) is listed as –	–	–	–	–	–	inactive: -0.052	–	–	inactive: 0.005
RBBP4 isoform 2 (UniProt Q09028) is listed as –	inactive: 0.015	inactive: 0.067	–	–	inactive: -0.135	inactive: 0.101	inactive: 0.028	–	inactive: 0.033

Further results:

| Target | log2 fold change [1] | log2 fold change [2] | log2 fold change [3] | log2 fold change [4] | log2 fold change [5] | log2 fold change [6] | log2 fold change [7] | log2 fold change [8] | log2 fold change [9] | log2 fold change [10] |
| --- | --- | --- | --- | --- | --- | --- | --- | --- | --- | --- |
| RAPGEF1 isoform 3 (UniProt Q13905) | inactive: -0.58 | – | inactive: -0.067 | – | inactive: -0.029 | – | – | inactive: 0.115 | – | – |
| RAB28 (UniProt P51157) | – | inactive: -0.071 | – | inactive: -0.003 | – | inactive: -0.016 | – | – | – | – |
| RBBP9 (UniProt O75884) | inactive: 0.038 | – | inactive: -0.454 | inactive: 0 | inactive: -0.012 | – | – | inactive: -0.001 | inactive: -0.193 | – |
| RAB19 isoform 2 (UniProt A4D1S5) | inactive: 0.026 | – | – | – | inactive: -0.133 | – | – | – | inactive: 0.295 | – |
| RBM14 (UniProt Q96PK6) | – | inactive: -0.149 | inactive: 0.288 | inactive: 0.1 | – | inactive: -0.042 | inactive: 0.047 | inactive: -0.044 | – | inactive: -0.05 |
| RAI1 (UniProt Q7Z5J4) | inactive: -0.244 | – | inactive: -0.208 | – | inactive: -0.06 | – | – | inactive: -0.154 | inactive: -1.04 | – |
| RAB18 (UniProt H0Y6T8) | – | – | inactive: -0.353 | inactive: -0.072 | – | – | inactive: -0.007 | inactive: 0.053 | – | inactive: -0.099 |
| RANBP6 (UniProt O60518) | inactive: 0.06 | – | – | – | inactive: 0.027 | – | inactive: -0.096 | – | – | inactive: -0.246 |
| RANBP3 isoform 2 (UniProt Q9H6Z4) | inactive: -0.032 | – | inactive: 0.003 | – | inactive: 0.05 | inactive: -0.055 | inactive: 0.074 | inactive: 0.005 | – | inactive: -0.011 |
| RAB3D (UniProt O95716) | – | inactive: 0.113 | inactive: 0.032 | inactive: -0.007 | – | inactive: -0.126 | inactive: 0.055 | inactive: 0.027 | – | inactive: 0.051 |
| RAB3IL1 (UniProt E9PK89) | inactive: 0.062 | inactive: 0.11 | – | inactive: 0.018 | inactive: -0.023 | inactive: 0.112 | inactive: 0.049 | – | inactive: -0.234 | inactive: 0.016 |
| RABGAP1L isoform 5 (UniProt Q5R372) | inactive: -0.246 | inactive: -0.094 | inactive: -0.021 | – | inactive: -0.051 | – | – | inactive: 0.106 | active: -0.315 | – |
| RAB30 (UniProt Q15771) | – | inactive: -0.059 | inactive: 0.004 | inactive: 0.049 | – | inactive: -0.139 | inactive: 0.033 | inactive: -0.03 | inactive: -0.014 | inactive: -0.038 |
| RBM23 (UniProt Q86U06) | inactive: 0.133 | – | – | inactive: -0.069 | inactive: 0.067 | – | – | – | inactive: 0.167 | – |
| RALGPS2 (UniProt Q86X27) | – | inactive: 0.258 | inactive: -0.08 | inactive: 0.175 | – | inactive: 0.074 | inactive: 0.219 | inactive: 0.089 | inactive: 0.34 | inactive: -0.153 |
| RAB11FIP4 (UniProt Q86YS3) | inactive: -0.13 | – | – | – | inactive: 0.015 | – | – | – | – | – |
| RASA3 (UniProt Q14644) | – | – | – | – | – | inactive: 0.283 | – | – | – | – |
| RBM26 isoform 3 (UniProt Q5T8P6) | inactive: -0.079 | inactive: -0.046 | – | – | inactive: 0.103 | – | – | – | – | – |
| RAD23A isoform 3 (UniProt P54725) | – | – | – | – | – | inactive: -0.03 | – | – | – | – |
| RBFA (UniProt Q8N0V3) | – | – | – | – | – | – | inactive: 0.171 | – | – | inactive: 0.115 |
| RASSF1 (UniProt Q9NS23) | inactive: 0.027 | – | – | inactive: -0.437 | inactive: 0.132 | – | – | – | – | – |
| RBKS (UniProt Q9H477) | – | inactive: -0.042 | inactive: -0.055 | inactive: -0.041 | – | – | inactive: 0.009 | inactive: 0.306 | – | inactive: -0.068 |
